Common to all, as to test: glycan array binding signal (z-score within array); higher = stronger binding
Common to all, as to details: glycan notation: IUPAC condensed, linker removed

Assay [1] deals with Gal(b1-3)GalNAc(b1-3)Gal(a1-4)Gal(b1-4)Glc. Put shortly:
(§1)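 Columns mapping to the same glycan were averaged after glycan names were converted to IUPAC-condensed notation. The data come from 3228 arrays in the Consortium for Functional Glycomics database, limited to those with an available protein sequence. Binding is reported as a within-array Z-score averaged across arrays of one protein sequence and across linkers.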

For assay [2], the target named is Gal(b1-3)GalNAc(b1-4)Gal(b1-4)Glc. Put shortly:
as §1

The target in assay [3] is Gal(b1-3)GalNAc(b1-4)[Neu5Ac(a2-3)]Gal(b1-4)Glc. Put shortly:
as §1

In assay [4] the target is Gal(b1-3)GlcNAc. Put shortly: as §1
Assay [5] concerns the target Gal(b1-3)GlcNAc(a1-3)Gal(b1-4)GlcNAc. Put shortly:
as §1

Assay [6] concerns the target Gal(b1-3)GlcNAc(a1-6)Gal(b1-4)GlcNAc. In a few lines:
as §1

The target of assay [7] is Gal(b1-3)GlcNAc(b1-2)Man. Put shortly: as §1
The target in assay [8] is Gal(b1-3)GlcNAc(b1-2)Man(a1-3)[Gal(b1-3)GlcNAc(b1-2)Man(a1-6)]Man(b1-4)GlcNAc(b1-4)GlcNAc. Put shortly:
as §1

In assay [9] the target is Gal(b1-3)GlcNAc(b1-2)Man(a1-3)[Gal(b1-3)GlcNAc(b1-2)Man(a1-6)]Man(b1-4)GlcNAc(b1-4)[Fuc(a1-6)]GlcNAc. In a few lines: as §1
Assay [10] has as its target Gal(b1-3)GlcNAc(b1-2)Man(a1-3)[GlcNAc(b1-4)][Gal(b1-3)GlcNAc(b1-2)Man(a1-6)]Man(b1-4)GlcNAc(b1-4)GlcNAc. In a few lines:
as §1

The target of assay [11] is Gal(b1-3)GlcNAc(b1-2)[Gal(b1-3)GlcNAc(b1-6)]Man(a1-6)[Gal(b1-3)GlcNAc(b1-2)Man(a1-3)]Man(b1-4)GlcNAc(b1-4)GlcNAc. Put shortly:
as §1

The target of assay [12] is Gal(b1-3)GlcNAc(b1-3)Gal(b1-3)GlcNAc. Put shortly: as §1
The target in assay [13] is Gal(b1-3)GlcNAc(b1-3)Gal(b1-4)Glc. Put shortly:
as §1

Assay [14] has as its target Gal(b1-3)GlcNAc(b1-3)Gal(b1-4)GlcNAc. In a few lines: as §1
The target in assay [15] is Gal(b1-3)GlcNAc(b1-3)Gal(b1-4)GlcNAc(b1-2)Man(a1-3)[Gal(b1-3)GlcNAc(b1-3)Gal(b1-4)GlcNAc(b1-2)Man(a1-6)]Man(b1-4)GlcNAc(b1-4)GlcNAc. Put shortly: as §1
The target of assay [16] is Gal(b1-3)GlcNAc(b1-3)Gal(b1-4)GlcNAc(b1-2)[Gal(b1-3)GlcNAc(b1-3)Gal(b1-4)GlcNAc(b1-6)]Man(a1-6)[Gal(b1-3)GlcNAc(b1-3)Gal(b1-4)GlcNAc(b1-2)Man(a1-3)]Man(b1-4)GlcNAc(b1-4)[Fuc(a1-6)]GlcNAc. In a few lines: as §1
Assay [17] addresses Gal(b1-3)GlcNAc(b1-3)Gal(b1-4)GlcNAc(b1-3)Gal(b1-4)GlcNAc(b1-2)[Gal(b1-3)GlcNAc(b1-3)Gal(b1-4)GlcNAc(b1-3)Gal(b1-4)GlcNAc(b1-6)]Man(a1-6)[Gal(b1-3)GlcNAc(b1-3)Gal(b1-4)GlcNAc(b1-3)Gal(b1-4)GlcNAc(b1-2)Man(a1-3)]Man(b1-4)GlcNAc(b1-4)[Fuc(a1-6)]GlcNAc. In a few lines: as §1
Assay [18] has as its target Gal(b1-3)GlcNAc(b1-3)Gal(b1-4)GlcNAc(b1-6)[Gal(b1-3)GlcNAc(b1-3)]Gal(b1-4)Glc. In a few lines:
as §1

For assay [19], the target named is Gal(b1-3)GlcNAc(b1-3)Gal(b1-4)[Fuc(a1-3)]GlcNAc. In a few lines:
as §1

Assay [20] deals with Gal(b1-3)GlcNAc(b1-3)Gal(b1-4)[Fuc(a1-3)]GlcNAc(b1-6)[Gal(b1-3)GlcNAc(b1-3)]Gal(b1-4)Glc. Put shortly:
as §1

In assay [21] the target is Gal(b1-3)GlcNAc(b1-3)GalNAc. In a few lines: as §1
In assay [22] the target is Gal(b1-3)GlcNAc(b1-6)Gal(b1-4)GlcNAc. In a few lines:
as §1

Assay [23] deals with Gal(b1-3)GlcNAc(b1-6)GalNAc. Put shortly: as §1

Results on one molecule are retold here after the supplement of paper PMC8728848.

Some of the results follow.

B1: Awp3 (Candida glabrata), B4UN32 (protein)
chain: MISFVTLLAILGLLSISWADQTVRSVAGDQRVTDPVIVGDNSILDYYGGSNYDFSNNFEIGRGTLYIGKESYFSSFQSAPTDVPNSFHLLIKNTNNLQNNGQFIIENIKRHANQCSNSSIQVFPINFQNDGEFEIISGGVEGRCCLPTSVIAPQNFLNNGKFYYKVLTDTGSIYSGSCMQNVDIGASTTTTVNNNLWEFTGSINAQINGAVSGAAQINLDGSNMFVNANTFSGQVVNLINGGSFLQTSDPLSNIVVINGLGTSDTGVTSIAVKGKGKSFTYNPSSGIVKLTTVEGKTYAYQIGCGYNTKKFITNNDSGASYESADNFFVLTYSEPYSPQTCQLENSSIFSSNFISTSTSSSSSSSSASSLPSSMSSSLPSSLSSSLSSSLSSSMSSSMSSLFIIPPPYTTTRSSGSSIIDTEIVSFYSTTDSPGHTITGTTTTTLYGPHTHSSVSTPSSSSESSTTSNSSIESSSLPHTSVSSTPESSITPSSNTISSSPTSDFSSVQSSSIMESSSVVASSSVINSSSIVDSSSSSASSLPSSMSSSLSSSMSSSLPSSMSSSLSSSLSSSLSSSMSSSMSSLFIIPPPYTTTRSSGSSIIDTEIVSFYSTTDSPGHTITGTTTTTLYGPHTHSSVSTPSSSSESSTTSNSSIESSSLPHTSVSSTPESSITPSSNTISSSPTSDFSSVQSSSIMESSSVVASSSVINSSSIVDSSSSSASSLPSSMPSSLPSSMSSSLSSSMSSSLSSSLSSSLSSSMSSSMSSLFIIPPPYTTTRSSGSSIIDTEIVSFYSTTDSPGHTITGTTTTTLYGPHTHSSVSTPSSSSESSTTSNSSIESSSLPHTSVSSTPESSITPSSNTISSSPTSDFSSVQSSSIMESSSVVASSSATQSSSVINSSSIVDSSSSSASSLPSSMPSSLPSSLSSSLSSSLSSSMSSSMSSLFIIPPPYTTTRSSGSSIIDTEIVSFYSTTDSPGHTITGTTTTTLYESSIYSSSSSTIQESELSNTSRTTMTSNSSVSISSTSSRSSFSNTKSSTIVISQSASLPDSKTDIILSTSSNIGYSSRSLLSDLGTSISDSDIHHSVLHSTESYSSNESGTNPFTSIASLSNFIPESSSHTSTALGSENSVISSDILTTMSHPVATNSGDKPTTPKRSEQVSTTMTSSGPTPDTSSFDTDGMSAYSRPEFTTNSLEVNKSSTSQLGNNKQTFSNLQLESTRPHSENEVDNNTRLLQSIQQSSTYGTNNVNPLSPTGSISIPLTEDGQGDNNNWNSPATNDLCTQISFNLTATTITVTDRITITDSIHDISSEVITSYIYQTIVDQKTVTQTVDGKSLANKMSSIPKPSSRSLIQPQPPVAIELQEGAASTSRVSLVSLFISIILVLL
For B1, the “glycan array binding signal (z-score)” value is 1.46 in [1]; -0.005 in assay [2]; -0.191 in assay [3]; -0.878 in assay [4]; -0.426 in [5]; 0.259 in assay [6]. Moreover, the “glycan array binding signal (z-score)” value in assay [7] was 0.418; in [8], 2.55; in [9] it was -0.994; in [10] it was -1.2; in [11] it was 0.433; in assay [12], 0.086. In addition, the “glycan array binding signal (z-score)” value in assay [13] is 0.728; in assay [14] it was -0.629; in [15], -0.664; in assay [16] it was 0.908; in assay [17], -1.72; in assay [18] it was 1.3. For the same molecule, the “glycan array binding signal (z-score)” value in assay [19] is -0.652; in assay [20], 2.48; in assay [21] it was -0.027; in [22], -0.082; in assay [23] it was 1.81.
